Measurements from PMC10826121.
No constants are given. Whether binding was seen depends on the method and setting. In cells and extracts the contact can be indirect. Some binding calls cover weakened binding; strength is not graded here.

Protein sequences, listed by entry. Tags and fused reporters are not part of them.
UniProt P49327: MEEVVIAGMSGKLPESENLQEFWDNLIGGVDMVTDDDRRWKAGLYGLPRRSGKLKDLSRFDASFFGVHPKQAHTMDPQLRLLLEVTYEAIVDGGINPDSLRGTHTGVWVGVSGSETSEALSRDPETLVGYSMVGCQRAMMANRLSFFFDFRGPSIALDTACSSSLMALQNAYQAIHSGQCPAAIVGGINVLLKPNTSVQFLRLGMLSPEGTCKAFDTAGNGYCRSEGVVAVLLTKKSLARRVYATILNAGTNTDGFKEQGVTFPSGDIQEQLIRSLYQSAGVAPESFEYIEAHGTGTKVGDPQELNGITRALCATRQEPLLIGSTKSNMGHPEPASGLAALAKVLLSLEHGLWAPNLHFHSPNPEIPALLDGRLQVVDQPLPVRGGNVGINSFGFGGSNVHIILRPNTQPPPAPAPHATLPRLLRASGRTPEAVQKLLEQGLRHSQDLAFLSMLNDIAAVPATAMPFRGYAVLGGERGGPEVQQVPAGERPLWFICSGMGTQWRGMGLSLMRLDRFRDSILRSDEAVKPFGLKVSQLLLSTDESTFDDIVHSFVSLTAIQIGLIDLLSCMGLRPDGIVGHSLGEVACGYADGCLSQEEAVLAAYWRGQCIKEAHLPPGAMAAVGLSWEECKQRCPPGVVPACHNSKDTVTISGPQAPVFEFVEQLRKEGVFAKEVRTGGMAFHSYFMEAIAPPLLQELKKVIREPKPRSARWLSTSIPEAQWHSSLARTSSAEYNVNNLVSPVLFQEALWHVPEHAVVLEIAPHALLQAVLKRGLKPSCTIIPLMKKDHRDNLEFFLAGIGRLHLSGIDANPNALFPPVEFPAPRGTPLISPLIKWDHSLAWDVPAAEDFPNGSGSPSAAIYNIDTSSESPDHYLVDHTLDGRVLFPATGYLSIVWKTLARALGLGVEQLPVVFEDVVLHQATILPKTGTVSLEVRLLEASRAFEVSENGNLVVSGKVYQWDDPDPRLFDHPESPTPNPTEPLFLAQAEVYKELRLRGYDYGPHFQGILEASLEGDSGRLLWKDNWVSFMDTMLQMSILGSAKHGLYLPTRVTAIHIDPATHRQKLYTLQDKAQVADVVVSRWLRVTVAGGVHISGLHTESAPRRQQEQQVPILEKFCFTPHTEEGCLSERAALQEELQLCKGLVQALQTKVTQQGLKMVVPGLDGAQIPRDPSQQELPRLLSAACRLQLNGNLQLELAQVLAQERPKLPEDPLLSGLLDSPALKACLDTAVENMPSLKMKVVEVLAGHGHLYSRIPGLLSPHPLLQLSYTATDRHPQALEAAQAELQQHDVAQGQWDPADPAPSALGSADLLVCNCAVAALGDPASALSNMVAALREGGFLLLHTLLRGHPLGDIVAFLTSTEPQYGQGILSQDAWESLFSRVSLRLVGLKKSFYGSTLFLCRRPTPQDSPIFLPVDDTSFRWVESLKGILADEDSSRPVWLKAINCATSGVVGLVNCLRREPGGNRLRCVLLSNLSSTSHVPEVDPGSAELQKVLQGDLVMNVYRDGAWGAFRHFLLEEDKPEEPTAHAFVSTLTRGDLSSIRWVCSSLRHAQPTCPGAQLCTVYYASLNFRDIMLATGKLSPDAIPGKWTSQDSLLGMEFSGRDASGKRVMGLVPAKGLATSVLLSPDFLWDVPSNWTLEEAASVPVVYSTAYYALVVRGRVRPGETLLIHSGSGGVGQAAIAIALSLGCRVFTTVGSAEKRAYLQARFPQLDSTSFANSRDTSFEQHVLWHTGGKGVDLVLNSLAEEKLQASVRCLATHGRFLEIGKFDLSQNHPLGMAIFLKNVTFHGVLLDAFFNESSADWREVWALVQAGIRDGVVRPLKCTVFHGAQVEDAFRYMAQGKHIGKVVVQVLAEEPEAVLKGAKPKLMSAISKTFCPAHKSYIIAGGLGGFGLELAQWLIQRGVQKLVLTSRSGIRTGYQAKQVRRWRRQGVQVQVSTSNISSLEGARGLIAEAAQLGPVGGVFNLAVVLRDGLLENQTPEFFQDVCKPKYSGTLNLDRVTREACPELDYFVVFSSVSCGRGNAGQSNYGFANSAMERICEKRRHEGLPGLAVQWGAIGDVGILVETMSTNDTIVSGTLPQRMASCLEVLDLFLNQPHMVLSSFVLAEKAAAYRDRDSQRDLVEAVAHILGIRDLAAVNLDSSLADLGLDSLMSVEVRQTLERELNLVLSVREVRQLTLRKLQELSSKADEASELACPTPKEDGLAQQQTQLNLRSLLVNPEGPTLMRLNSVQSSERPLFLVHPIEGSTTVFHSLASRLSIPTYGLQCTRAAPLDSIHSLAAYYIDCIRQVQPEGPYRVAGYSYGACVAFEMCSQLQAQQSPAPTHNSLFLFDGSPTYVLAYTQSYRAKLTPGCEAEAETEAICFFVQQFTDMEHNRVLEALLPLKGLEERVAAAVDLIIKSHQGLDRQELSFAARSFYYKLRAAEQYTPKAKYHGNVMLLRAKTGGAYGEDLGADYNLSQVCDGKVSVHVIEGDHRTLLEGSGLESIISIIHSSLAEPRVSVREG

Target: Fatty acid synthase (human (endogenous in HT29 and SW480)) (UniProt P49327)
Assay: co-IP; lysate of HT29 or SW480 cells, 1-1.5 mg total protein; IP overnight at 4 C with 4 ug anti-FASN antibody, Protein G magnetic beads; western blotting

B1: phosphatidylinositol transfer protein cytoplasmic 1 (protein, UniProt Q9UKF7 1-332)
chain: MLLKEYRICMPLTVDEYKIGQLYMISKHSHEQSDRGEGVEVVQNEPFEDPHHGNGQFTEKRVYLNSKLPSWARAVVPKIFYVTEKAWNYYPYTITEYTCSFLPKFSIHIETKYEDNKGSNDTIFDNEAKDVEREVCFIDIACDEIPERYYKESEDPKHFKSEKTGRGQLREGWRDSHQPIMCSYKLVTVKFEVWGLQTRVEQFVHKVVRDILLIGHRQAFAWVDEWYDMTMDEVREFERATQEATNKKIGIFPPAISISSIPLLPSSVRSAPSSAPSTPLSTDAPEFLSVPKDRPRKKSAPETLTLPDPEKKATLNLPGMHSSDKPCRPKSE
B1 was tested, and the binding was “binds”.
